Reference: PMC3308951
Results are given in words; binding and its absence hold for the method and conditions named. In cells and extracts the contact can be indirect.

Sequences of proteins named here, by UniProt entry; tags and fusion partners are left off. Residues count along the entry.
UniProt Q9Y6W5: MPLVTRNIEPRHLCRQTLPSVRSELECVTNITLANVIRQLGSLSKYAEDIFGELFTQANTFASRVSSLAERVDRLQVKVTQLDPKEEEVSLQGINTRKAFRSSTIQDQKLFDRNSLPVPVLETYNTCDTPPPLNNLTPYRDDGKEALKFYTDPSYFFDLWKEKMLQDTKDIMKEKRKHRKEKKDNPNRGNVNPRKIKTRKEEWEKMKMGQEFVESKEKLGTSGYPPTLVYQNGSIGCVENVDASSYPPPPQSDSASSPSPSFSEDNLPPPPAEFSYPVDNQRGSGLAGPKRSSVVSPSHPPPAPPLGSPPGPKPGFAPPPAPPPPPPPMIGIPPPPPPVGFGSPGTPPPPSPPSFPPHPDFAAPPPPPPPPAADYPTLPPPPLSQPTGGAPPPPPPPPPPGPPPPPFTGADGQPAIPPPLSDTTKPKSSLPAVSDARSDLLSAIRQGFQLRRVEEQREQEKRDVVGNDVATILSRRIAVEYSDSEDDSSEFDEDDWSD
UniProt P40198, residues 35-252: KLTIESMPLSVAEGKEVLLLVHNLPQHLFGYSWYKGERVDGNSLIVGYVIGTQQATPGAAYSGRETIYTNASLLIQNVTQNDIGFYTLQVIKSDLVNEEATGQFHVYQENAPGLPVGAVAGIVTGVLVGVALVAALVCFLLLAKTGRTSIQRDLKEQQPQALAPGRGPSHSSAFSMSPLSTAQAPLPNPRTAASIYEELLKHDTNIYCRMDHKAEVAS

Molecular target: GFP-tagged human WAVE2 wild type (human) (UniProt Q9Y6W5)
Test: co-IP; 293 cells transfected with combinations of GFP-WAVE2, myc-Nck1, CEACAM3 WT-HA and vSrc; lysates with 3 µg polyclonal rabbit anti-GFP over night, protein A/G sepharose 1 h, 4°C, three washes with Triton buffer; blots with myc-, HA- and GFP antibodies

## HA-tagged CEACAM3 wild type, expressed without vSrc (not tyrosine phosphorylated) (from UniProt P40198 35-252) (receptor)
  binding: no binding
